The exact form of at least one protein or probe is not confirmed. A negative result means that nothing was seen under these conditions. Where a protein sequence is shown, tags need not be part of it.
Target: T1, eEF1A1 (Homo sapiens (HeLa S-100)) (UniProt P68104)
T1 sequence (looked up, limits assumed): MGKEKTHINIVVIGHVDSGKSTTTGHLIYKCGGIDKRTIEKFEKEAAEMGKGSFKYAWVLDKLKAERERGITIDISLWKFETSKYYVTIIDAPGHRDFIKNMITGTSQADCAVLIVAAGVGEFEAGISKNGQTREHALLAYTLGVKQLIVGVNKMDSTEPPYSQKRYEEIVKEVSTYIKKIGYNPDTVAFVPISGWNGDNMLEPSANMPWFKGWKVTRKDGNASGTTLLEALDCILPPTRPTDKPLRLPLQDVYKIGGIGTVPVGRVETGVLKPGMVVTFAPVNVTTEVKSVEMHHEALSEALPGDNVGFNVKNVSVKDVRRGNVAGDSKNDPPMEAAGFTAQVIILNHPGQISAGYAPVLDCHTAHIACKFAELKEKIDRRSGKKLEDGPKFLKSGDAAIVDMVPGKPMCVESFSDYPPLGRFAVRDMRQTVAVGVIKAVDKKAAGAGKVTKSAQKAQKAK
Assay: EMSA
Conditions: RNA EMSA: purified eEF1A1 with 20 kcpm RNA (~0.1 pmol/ul), 50 uM GTP, 30 min, room temperature; protein stock in 50 mM Tris-HCl pH 7.5, 100 mM KCl, 0.5 mM EDTA, 2 mM DTT; native protein; label: 32P CTP; probe letters rebuilt from the primers and the …

“GGGAUAAAAGCCCAGGGGCAAGCGGUCCGGAUAACGGCUAGCCUGAGGAGCUGCUGCGACAGUCCACUACCUUUUUCGAGAGUGACUCCCGUUGUCCCAAGGCUUCCCAGAGCGAACCUGUGCGGCUGCAGGCACCGGCGCGUCGAGUUUCCGGCGUCCGGAAGGACCGAGCUCUUCUCGCGGAUCCAGUGUUCCGUUUCCAGCCCCCAAUCUCAGAGCGGAGCCGACAGAGAGCAGGGAACCGGCA [HSP70 5'UTR]”: no binding.

— publication PMC4164936, “The translation elongation factor eEF1A1 couples transcription to translation during heat shock response”
